Experimental data taken from the supplement of paper PMC10338343.
± gives the standard deviation. The list shows a part of the results. The uncertainty is large for many entries.

Test system: EfPiwi piRISC loaded with L1MC piRNA (26 nt)
Assay: pre-steady-state target cleavage rate (min^-1); guide: L1MC piRNA 5'p-UAACUAAAUACUAUGCAAGCUGUAGG; MIWI and MILI are mouse PIWI proteins and EfPiwi is from a freshwater sponge; tags in brackets are library labels; higher = faster piRNA-guided slicing of the target
Conditions: auxiliary factor: 500 nM Ephydatia muelleri Gtsf1
Experimental: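 Cleave-'n-Seq: a library of target RNAs (target site in constant flanks) at […] was incubated with 1 nM active freshwater sponge Ephydatia fluviatilis Piwi piRISC (synthetic 5'-monophosphorylated piRNA guide) with or without 500 nM EmGtsf1 at 33 °C for 1 min to 16 h. Uncleaved targets were sequenced and the pooled three trials fitted to a burst-and-steady-state model to give the pre-steady-state cleavage rate (min^-1). Sequence is the target site only. Fits with R² ≤ 0 are excluded.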

Row | Sequence | pre-steady-state target cleavage rate
1 | UCCUGGAUGUCGUUGCAUGUAUUUAGUUA | 0.000271 ± 0.015
2 | UCCUGCUUCAGCUUGCAUAGUAUUUAGAAA | 0.00434 ± 0.0021
3 | UCCUGGAUGAGCUUGCAUAGUAUUAACAAA | 0.00156 ± 0.005
4 | UCCUCCUACUCCUUGCAUAGUAUUUUCAAA | 0.00236 ± 0.0035
5 | UCCUGGAUGACCUUGCAAAGUAUUUAGUUA | 0.00391 ± 0.0037
6 | UCCUGGAACAGCAACCAUAGUAUUUAGAAA | 0.000483 ± 0.01
7 | UCCUGCUACAGCUAGCAUAGUAUUUAGUUA | 0.0287 ± 0.0081
8 | UCCUGGAUGUGCUUGCAUAGUAUUCUAGUUA | 0.00114 ± 0.0049
9 | UCCUGGUACAGCUUGCAUAGUUUUUAGUAA | 0.00728 ± 0.0027
10 | UCCUGGAUGUCGAAGCUAAGUAUUUAGUUA | 0.000596 ± 0.009
11 | UCCUGGAUGUCGAAGCGAUAGUAUUUAGUUA | 0.000251 ± 0.013
12 | UCCUGGAUCAGCUUGCAUACAAUUUACAAA | 0.000431 ± 0.0069
13 | UCCUGGUACAGCAUGCAUAGUAUAUAGUUA | 0.00569 ± 0.0031
14 | UCCUGGAUCAGCUUGCAUAGUUUUAGUUA | 0.000712 ± 0.0059
15 | UCCUGCUACAGCUUGCAAUCUAUUUAGUUA | 0.00144 ± 0.0044
16 | UCCUGGAACAGCAUGCAUUGUAUUUAGUUA | 0.00504 ± 0.002
17 | UCCUGGAUGAGCGUUGCAUAGUAUUUAGUUA | 0.00582 ± 0.0034
18 | UCCUCCUACAGCUCUGCAUAGUAUUUAGUUA | 0.0445 ± 0.014
19 | UCCUGCUACACCUUGCAUAGUAUUUACUUA | 0.00306 ± 0.003
20 | UCCUGGAUGUCGUUGCAUAGUAUUUAGUUG [g2:g18:cont:t1G] | 0.00135 ± 0.0049
21 | UCCUGGAUGUCGAAGCUUAGUAUUUAGUAA | 0.000149 ± 0.032

Same assay, conditions: auxiliary factor: none (no Gtsf1)

Row | Sequence | pre-steady-state target cleavage rate
22 | UCCUGGAUGUCGUUGCAUGUAUUUAGUUA | < 0.0001
23 | UCCUGGAUGAGCUUGCAUAGUAUUAACAAA | 0.000283 ± 0.03
24 | UCCUGGAUGACCUUGCAAAGUAUUUAGUUA | 0.000492 ± 0.017
25 | UCCUGGAACAGCAACCAUAGUAUUUAGAAA | 0.000539 ± 0.014
26 | UCCUGCUACAGCUAGCAUAGUAUUUAGUUA | 0.000986 ± 0.006
27 | UCCUGGAUGUGCUUGCAUAGUAUUCUAGUUA | 0.000537 ± 0.018
28 | UCCUGGUACAGCUUGCAUAGUUUUUAGUAA | 0.000509 ± 0.025
29 | UCCUGGAUGUCGAACGUUAGUAUUUGGUUA | 0.00018 ± 0.038
30 | UCCUGGAUGUCGAAGCGAUAGUAUUUAGUUA | 0.000248 ± 0.028
31 | UCCUGGAUCAGCUUGCAUACAAUUUACAAA | 0.000278 ± 0.029
32 | UCCUGCUACAGGUUGCAUAGUAUUUAGAAA | 0.000184 ± 0.023
33 | UCCUGGAUCAGCUUGCAUAGUUUUAGUUA | 0.000118 ± 0.031
34 | UCCUGCUACAGCUUGCAAUCUAUUUAGUUA | 0.000112 ± 0.023
35 | UCCUGGAACAGCAUGCAUUGUAUUUAGUUA | 0.0006 ± 0.014
36 | UCCUGGAUGUCGAACGUUCGUAUUUAGUUA | < 0.0001
37 | UCCUGGAUGUCCUUGCAUAGUAUGUUAGUUA | 0.000595 ± 0.019
38 | UCCUGGAUGAGCGUUGCAUAGUAUUUAGUUA | 0.00126 ± 0.0066
39 | UCCUGCUACACCUUGCAUAGUAUUUACUUA | 0.00062 ± 0.013
40 | UCCUGGAUGUCGUUGCAUAGUAUUUAGUUG [g2:g18:cont:t1G] | 0.000189 ± 0.051
41 | UCCUGGAUGUCGAAGCUUAGUAUUUAGUAA | < 0.0001
